These are literature values, as cited in US11963942B2, “Oral taxane compositions and methods” (Athenex HK Innovative Limited, priority 2015, dated 2024).

With `CC(=O)O[C@H]1C(=O)[C@@]2(C)[C@H]([C@H](OC(=O)c3ccccc3)[C@]3(O)C[C@H](OC(=O)[C@H](O)[C@@H](NC(=O)c4ccccc4)c4ccccc4)C(C)=C1C3(C)C)[C@]1(OC(C)=O)CO[C@@H]1C[C@@H]2O` [paclitaxel], the solubility in water entry is recorded as “less than 0.01 mg/mL”.
